Measurements taken from paper PMC11117474.
No constants are given. Whether binding was seen depends on the method and setting. Binding seen in cells or lysates may run through a third protein. Some binding calls cover weakened binding; strength is not graded here.

Target: T1, RYBP (RING1A and YY1 binding protein), endogenous (human (endogenous in MRC-5 and MDA-MB-231)) (UniProt Q8N488)
T1 sequence: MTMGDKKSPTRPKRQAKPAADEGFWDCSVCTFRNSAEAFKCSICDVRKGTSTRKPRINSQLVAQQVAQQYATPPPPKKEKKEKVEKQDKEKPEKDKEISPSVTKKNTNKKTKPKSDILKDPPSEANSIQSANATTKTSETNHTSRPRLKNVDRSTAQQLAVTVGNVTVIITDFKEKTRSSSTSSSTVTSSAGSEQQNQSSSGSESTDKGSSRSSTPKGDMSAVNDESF
Experiment: proximity ligation; Duolink in situ PLA on fixed, permeabilised MRC-5 and MDA-MB-231 cells with anti-PKP1 (mouse) and anti-RYBP (rabbit) primary antibodies; confocal microscopy; endogenous proteins

B1: Plakophilin 1 (PKP1), endogenous (protein, UniProt Q13835 1-747)
chain: MNHSPLKTALAYECFQDQDNSTLALPSDQKMKTGTSGRQRVQEQVMMTVKRQKSKSSQSSTLSHSNRGSMYDGLADNYNYGTTSRSSYYSKFQAGNGSWGYPIYNGTLKREPDNRRFSSYSQMENWSRHYPRGSCNTTGAGSDICFMQKIKASRSEPDLYCDPRGTLRKGTLGSKGQKTTQNRYSFYSTCSGQKAIKKCPVRPPSCASKQDPVYIPPISCNKDLSFGHSRASSKICSEDIECSGLTIPKAVQYLSSQDEKYQAIGAYYIQHTCFQDESAKQQVYQLGGICKLVDLLRSPNQNVQQAAAGALRNLVFRSTTNKLETRRQNGIREAVSLLRRTGNAEIQKQLTGLLWNLSSTDELKEELIADALPVLADRVIIPFSGWCDGNSNMSREVVDPEVFFNATGCLRKRLGMRELLALVPQRATSSRVNLSSADAGRQTMRNYSGLIDSLMAYVQNCVAASRCDDKSVENCMCVLHNLSYRLDAEVPTRYRQLEYNARNAYTEKSSTGCFSNKSDKMMNNNYDCPLPEEETNPKGSGWLYHSDAIRTYLNLMGKSKKDATLEACAGALQNLTASKGLMSSGMSQLIGLKEKGLPQIARLLQSGNSDVVRSGASLLSNMSRHPLLHRVMGNQVFPEVTRLLTSHTGNTSNSEDILSSACYTVRNLMASQPQLAKQYFSSSMLNNIINLCRSSASPKAAEAARLLLSDMWSSKELQGVLRQQGFDRNMLGTLAGANSLRNFTSRF
B1 was tested, and the binding was “binds”.
